Drawing on PMC5567129, this text covers binding for 1 substance.

The assay concerns the target T1, contactin-associated protein (Caspr) (mouse (endogenous in lumbosacral spinal cord)) (UniProt O54991).
T1 sequence: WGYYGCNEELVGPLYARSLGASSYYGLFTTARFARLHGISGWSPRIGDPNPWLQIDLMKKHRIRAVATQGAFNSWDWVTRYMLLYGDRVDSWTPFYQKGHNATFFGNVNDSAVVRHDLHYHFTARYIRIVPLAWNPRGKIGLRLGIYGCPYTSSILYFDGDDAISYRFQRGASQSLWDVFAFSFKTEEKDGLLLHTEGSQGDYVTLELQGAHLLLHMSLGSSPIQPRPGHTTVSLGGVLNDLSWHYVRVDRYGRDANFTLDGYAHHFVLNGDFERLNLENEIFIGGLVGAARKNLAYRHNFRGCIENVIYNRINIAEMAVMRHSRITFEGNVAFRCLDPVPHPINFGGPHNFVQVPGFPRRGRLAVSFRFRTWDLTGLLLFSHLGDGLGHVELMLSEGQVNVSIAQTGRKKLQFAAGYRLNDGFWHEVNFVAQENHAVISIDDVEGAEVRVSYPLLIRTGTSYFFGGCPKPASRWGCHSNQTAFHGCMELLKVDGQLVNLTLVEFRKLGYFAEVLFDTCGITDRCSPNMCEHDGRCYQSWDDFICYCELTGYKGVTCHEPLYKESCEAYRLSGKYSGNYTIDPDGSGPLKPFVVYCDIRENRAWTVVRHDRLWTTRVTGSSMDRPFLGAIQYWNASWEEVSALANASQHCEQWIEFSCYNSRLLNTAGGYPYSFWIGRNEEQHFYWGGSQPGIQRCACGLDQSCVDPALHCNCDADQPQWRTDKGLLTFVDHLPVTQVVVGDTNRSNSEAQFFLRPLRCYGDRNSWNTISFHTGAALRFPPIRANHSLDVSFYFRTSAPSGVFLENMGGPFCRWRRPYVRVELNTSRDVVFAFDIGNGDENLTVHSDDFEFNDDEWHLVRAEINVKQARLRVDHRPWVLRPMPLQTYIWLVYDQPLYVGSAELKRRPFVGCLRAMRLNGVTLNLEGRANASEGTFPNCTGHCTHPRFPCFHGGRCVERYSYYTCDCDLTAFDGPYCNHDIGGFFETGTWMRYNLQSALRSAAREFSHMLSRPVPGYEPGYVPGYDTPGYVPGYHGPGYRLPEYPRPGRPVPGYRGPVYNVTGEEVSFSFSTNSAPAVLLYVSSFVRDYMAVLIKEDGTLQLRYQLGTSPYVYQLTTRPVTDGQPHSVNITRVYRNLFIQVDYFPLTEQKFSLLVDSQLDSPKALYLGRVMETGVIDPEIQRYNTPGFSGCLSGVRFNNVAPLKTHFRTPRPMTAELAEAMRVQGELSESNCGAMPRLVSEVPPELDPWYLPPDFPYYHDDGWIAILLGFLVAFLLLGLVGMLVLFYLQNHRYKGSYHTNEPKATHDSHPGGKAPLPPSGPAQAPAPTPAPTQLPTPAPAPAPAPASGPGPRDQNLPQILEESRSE
As to the kind of experiment: co-IP.

Results are given in words; binding and its absence hold for the method and conditions named. Binding seen in cells or lysates may run through a third protein. Some entries that bind do so weakly or less than the wild type.

On to “cellular prion protein, PrP^C (from UniProt P04925 23-230)”, for which the binding result is “binds”.
